Small differences around the control level are noise.
Columns and labels:
Assay in all cases: normalised response (% of control), CellTox Green; higher = less cell death (100 = DMSO, 0 = benzethonium chloride kill control)
Details in all cases: incubation time: 72 h
HDQ-P1 [1] = system: HDQ-P1
Description: (§1)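 DSRT, 72 h incubation, CellTox Green / CellTiter-Glo readout. Signal is normalised to DMSO and benzethonium chloride controls. Value is the normalised response at dose 2.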

CAL-51 [2] = system: CAL-51
Description: as §1

BT-549 [3] = system: BT-549
Description: as §1

MDA-MB-231 [4] = system: MDA-MB-231
Description: as §1

HCC1937 [5] = system: HCC1937
Description: as §1

HCC1143 [6] = system: HCC1143
Description: as §1

MDA-MB-436 [7] = system: MDA-MB-436
Description: as §1

DU-4475 [8] = system: DU-4475
Description: as §1

CAL-148 [9] = system: CAL-148
Description: as §1

MDA-MB-453 [10] = system: MDA-MB-453
Description: as §1

MCF-10A [11] = system: MCF-10A
Description: as §1

Hs578T [12] = system: Hs578T
Description: as §1

HCC1599 [13] = system: HCC1599
Description: as §1

CAL-120 [14] = system: CAL-120
Description: as §1

MFM-223 [15] = system: MFM-223
Description: as §1

CAL-85-1 [16] = system: CAL-85-1
Description: as §1

BT-474 [17] = system: BT-474
Description: as §1

MDA-MB-468 [18] = system: MDA-MB-468
Description: as §1

HDQ-P1 [19] = system: HDQ-P1; remark: listed apart in the source
Description: (§2)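 DSRT, 72 h incubation, CellTox Green / CellTiter-Glo readout. Signal is normalised to DMSO and benzethonium chloride controls. Value is the normalised response at the lowest tested concentration.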

CAL-51 [20] = system: CAL-51; remark: listed apart in the source
Description: as §2

BT-549 [21] = system: BT-549; remark: listed apart in the source
Description: as §2

MDA-MB-231 [22] = system: MDA-MB-231; remark: listed apart in the source
Description: as §2

HCC1937 [23] = system: HCC1937; remark: listed apart in the source
Description: as §2

HCC1143 [24] = system: HCC1143; remark: listed apart in the source
Description: as §2

MDA-MB-436 [25] = system: MDA-MB-436; remark: listed apart in the source
Description: as §2

DU-4475 [26] = system: DU-4475; remark: listed apart in the source
Description: as §2

CAL-148 [27] = system: CAL-148; remark: listed apart in the source
Description: as §2

MDA-MB-453 [28] = system: MDA-MB-453; remark: listed apart in the source
Description: as §2

MCF-10A [29] = system: MCF-10A; remark: listed apart in the source
Description: as §2

Hs578T [30] = system: Hs578T; remark: listed apart in the source
Description: as §2

HCC1599 [31] = system: HCC1599; remark: listed apart in the source
Description: as §2

MDA-MB-468 [32] = system: MDA-MB-468; remark: listed apart in the source
Description: as §2

CAL-120 [33] = system: CAL-120; remark: listed apart in the source
Description: as §2

MFM-223 [34] = system: MFM-223; remark: listed apart in the source
Description: as §2

CAL-85-1 [35] = system: CAL-85-1; remark: listed apart in the source
Description: as §2

BT-474 [36] = system: BT-474; remark: listed apart in the source
Description: as §2

Structure (SMILES)	normalised response (HDQ-P1 [1]) [%]	normalised response (CAL-51 [2]) [%]	normalised response (BT-549 [3]) [%]	normalised response (MDA-MB-231 [4]) [%]	normalised response (HCC1937 [5]) [%]	normalised response (HCC1143 [6]) [%]	normalised response (MDA-MB-436 [7]) [%]	normalised response (DU-4475 [8]) [%]	normalised response (CAL-148 [9]) [%]	normalised response (MDA-MB-453 [10]) [%]	normalised response (MCF-10A [11]) [%]	normalised response (Hs578T [12]) [%]	normalised response (HCC1599 [13]) [%]	normalised response (CAL-120 [14]) [%]	normalised response (MFM-223 [15]) [%]	normalised response (CAL-85-1 [16]) [%]	normalised response (BT-474 [17]) [%]	normalised response (MDA-MB-468 [18]) [%]	normalised response (HDQ-P1 [19]) [%]	normalised response (CAL-51 [20]) [%]	normalised response (BT-549 [21]) [%]	normalised response (MDA-MB-231 [22]) [%]	normalised response (HCC1937 [23]) [%]	normalised response (HCC1143 [24]) [%]	normalised response (MDA-MB-436 [25]) [%]	normalised response (DU-4475 [26]) [%]	normalised response (CAL-148 [27]) [%]	normalised response (MDA-MB-453 [28]) [%]	normalised response (MCF-10A [29]) [%]	normalised response (Hs578T [30]) [%]	normalised response (HCC1599 [31]) [%]	normalised response (MDA-MB-468 [32]) [%]	normalised response (CAL-120 [33]) [%]	normalised response (MFM-223 [34]) [%]	normalised response (CAL-85-1 [35]) [%]	normalised response (BT-474 [36]) [%]
CN1CCC(COc2cnc(-c3cccc(Cn4nc(-c5cccc(C#N)c5)ccc4=O)c3)nc2)CC1 (1 nM)	112	97.5	102	99.4	98.4	90	102	111	105	107	113	110	97.7	105	100	95.8	98.6																			
COc1cc(Nc2ncc3c(n2)-c2ccc(Cl)cc2C(c2c(F)cccc2OC)=NC3)ccc1C(=O)O [Alisertib] (10 nM)	109	71	66.4	92.7		103	97	94.9				117	94.2	96.7	98.2	98.8	97.6	57.1																		
COc1cc(Nc2c(C#N)cnc3cc(OCCCN4CCN(C)CC4)c(OC)cc23)c(Cl)cc1Cl [Bosutinib] (10 nM)	51.5	95.7	106	111	115	111	93.7	97.2	86.5	99.4	85.7	128	102	93.9	104	101	104																			
O=C(Nc1ccncc1)C(=O)c1cn(Cc2ccc(Cl)cc2)c2ccccc12 [Indibulin] (10 nM)	115	84.6	102	65.5	115	119	89.7	115	104	105	118	121	121	109	103	94.8	97.2																			
CC[C@H](CO)Nc1nc(NCc2ccccc2)c2ncn(C(C)C)c2n1 [Seliciclib] (10 nM)	90.3	111	107	108	98.1	90.3	103	110	87.2		105	120	114	104	97.3	99.9	94.3	55.6																		
O=[N+]([O-])c1ccc2c(c1)S(=O)(=O)C=C2 [Stattic] (50 nM)	112	104	107	108	120	104	80.8	98.4	106	97.6	91.2	118	99.1	88.4	105	104	104																			
Cn1c(=O)c(F)c(Nc2ccc(I)cc2F)c2c(=O)n(C[C@@H](O)CO)cnc21 [TAK-733] (1 nM)	86.2	94.8	81.1	111		103	94.2	117	84.7	107	101	110	122	104	104	98	104	115																		
Nc1nc2[nH]cnc2c(=S)[nH]1 [Thioguanine] (1 nM)																			96	62	97.1	114	90	108	73.2	105	94.1	97	104	88.1	109	89.8	101	102	101	100
Cn1cncc1[C@@](N)(c1ccc(Cl)cc1)c1ccc2c(c1)c(-c1cccc(Cl)c1)cc(=O)n2C [Tipifarnib] (10 nM)	111	95.8	105	105	96.2	108	71.6	109	105	103	109	67.6	112	100	92.5	103	103																			

Reference: the supplement of paper PMC4862054
